Laboratory results taken from PMC11251518, “A novel reporter for helicase activity in translation uncovers DDX3X interactions” (RNA, 2024).
Results are given in words; binding and its absence hold for the method and conditions named. Where a sequence is shown, tags or fusion partners need not be part of it.

Biological target: T1, Saccharomyces cerevisiae eIF4E (S. cerevisiae, UniProt P07260 1-213, ^15N labeled)
T1 construct: eIF4E of Saccharomyces cerevisiae; source: E. coli BL21-star, purified (nickel resin, TEV cleavage, m^7G cap resin)
T1 sequence (looked up): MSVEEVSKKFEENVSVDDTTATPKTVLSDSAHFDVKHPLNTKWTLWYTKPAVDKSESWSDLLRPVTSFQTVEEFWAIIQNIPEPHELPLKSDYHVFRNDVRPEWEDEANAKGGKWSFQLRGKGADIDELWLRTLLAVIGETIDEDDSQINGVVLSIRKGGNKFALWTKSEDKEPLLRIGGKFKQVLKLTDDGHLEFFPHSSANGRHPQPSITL
Experiment: NMR titration; ^15N HSQC of 200 μM ^15N S. cerevisiae eIF4E with 250 μM m^7GTP; peptide added to 1 mM; 50 mM phosphate pH 6.5, 50 mM KCl, 298 K, 900 MHz; both purified

ASKGRYIPPHLRNREATKGAA [DDX3X 33–51 peptide]
binding: no binding (tested: 1 mM)
